# Results are given in words; binding and its absence hold for the method and conditions named. Binding seen in cells or lysates may run through a third protein. Some entries that bind do so weakly or less than the wild type.
# Protein sequences, listed by entry. Tags and fused reporters are not part of them. Residues count along the entry.
# UniProt Q10589, residues 1-161: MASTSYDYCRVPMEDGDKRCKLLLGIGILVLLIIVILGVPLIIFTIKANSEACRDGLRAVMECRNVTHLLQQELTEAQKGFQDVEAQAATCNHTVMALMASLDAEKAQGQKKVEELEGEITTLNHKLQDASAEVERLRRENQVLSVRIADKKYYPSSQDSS
# UniProt P27449: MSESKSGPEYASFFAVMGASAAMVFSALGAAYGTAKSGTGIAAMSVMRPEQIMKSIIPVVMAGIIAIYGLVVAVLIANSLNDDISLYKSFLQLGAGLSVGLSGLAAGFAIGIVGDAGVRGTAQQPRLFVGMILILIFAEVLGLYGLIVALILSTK
# Legend:
# [1] = biological target: N-terminally HA-tagged human tetherin (human) (UniProt Q10589); assay: co-IP
# [2] = biological target: C-terminally FLAG-tagged ATP6V0C (UniProt P27449); assay: co-IP
Substance,binding [1],binding [2]
C-terminally FLAG-tagged ATP6V0C (from UniProt P27449 1-155),binds,
N-terminally HA-tagged human tetherin (from UniProt Q10589 1-161),,binds

# — paper doi:10.1101/2020.03.01.972125
